Reference: patent publication US20230078601A1 (CLEVELAND CLINIC FOUNDATION, published 2023)
No constants are given. Whether binding was seen depends on the method and setting. Some binding calls cover weakened binding; strength is not graded here. For some of these results: Tags and fused reporters may be left off the sequences shown.

Tests used:
[1] = biological target: T1, recombinant extracellular domain of human AMHR2 (rhAMHR2-ED), C-terminal hexahistidine-tagged fusion protein (human) (UniProt Q16671); test: ELISA
T1 sequence: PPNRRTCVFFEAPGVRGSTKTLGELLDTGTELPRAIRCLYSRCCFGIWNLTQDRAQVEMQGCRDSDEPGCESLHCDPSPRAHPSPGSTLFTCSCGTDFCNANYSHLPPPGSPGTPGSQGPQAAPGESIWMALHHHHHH

10-25 = biological target: T2, 10-25; test: SPOT peptide array on cellulose membrane, 4D12G1, chemiluminescence
T2 sequence (peptide): FEAPGVRGSTKTLGEL

9-24 = biological target: T3, 9-24; test: as above
T3 sequence (peptide): FFEAPGVRGSTKTLGE

p20-24 = biological target: T4, p20-24; test: as above
T4 sequence (peptide): KTLGE

p20-25 = biological target: T5, p20-25; test: as above
T5 sequence (peptide): KTLGEL

p21-25 = biological target: T6, p21-25; test: as above
T6 sequence (peptide): TLGEL

p23-38 = biological target: T7, p23-38; test: as above
T7 sequence (peptide): GELLDTGTELPRAIRC

p24-39 = biological target: T8, p24-39; test: as above
T8 sequence (peptide): ELLDTGTELPRAIRCL

p25-40 = biological target: T9, p25-40; test: as above
T9 sequence (peptide): LLDTGTELPRAIRCLY

[2] = biological target: T1, recombinant extracellular domain of human AMHR2 (rhAMHR2-ED), C-terminal hexahistidine-tagged fusion protein (human); test: competitive ELISA, rhAMHR2-ED in liquid phase against plate-coated rhAMHR2-ED

binding [1]: binds
binding (10-25): no binding (tested: 1.0 µg/ml)
binding (9-24): no binding (tested: 1.0 µg/ml)
binding (p20-24): no binding (tested: 1.0 µg/ml)
binding (p20-25): no binding (tested: 1.0 µg/ml)
binding (p21-25): no binding (tested: 1.0 µg/ml)
binding (p23-38): no binding (tested: 1.0 µg/ml)
binding (p24-39): no binding (tested: 1.0 µg/ml)
binding (p25-40): no binding (tested: 1.0 µg/ml)
binding [2]: binds
B1: 4D12G1 mAb (antibody, IgG1, V domains shown)
VH: DVKLVESGGGLVKLGGSLKLSCAASGFTFSRYFMSWVRQTPEKRLELVAAINSDGGRTYYPDTVKGRFTISRDNAKNTLYLQMSSLKSEDTALYYCTRHIYSYYEDYFDYWGQGTTLTVSS
VL: DVVMTQTPLSLPVSLGDQASISCRSSQSLVHSNGNTYLHWYLQKPGQSPKLLIYKVSKRFSGVPDRFSGSGSGTDFTLKISRVEAEDLGVYFCSQSTHVYTFGGGTKLEIK
notes: also called 4D12G1 IgG1 mAb
